According to article PMC4675558:
Residue numbers refer to the chain shown, from its start. No constants are given. Whether binding was seen depends on the method and setting. Binding seen in cells or lysates may run through a third protein. A result given as binding can be weak or reduced; the word gives no strength. Where a sequence is shown, tags or fusion partners need not be part of it.

Key:
[1] = biological target: T1, (MBP)-Met30(1-186) M178E/I179E (S. cerevisiae) (UniProt P39014); assay: pull-down; MBP-tagged proteins on amylose resin incubated with 3 mg of bacterial lysate expressing Cdc53(267-851)/GST-Rbx1, 2 h at 4°C, recombinant protein buffer; detected with anti-Cdc53 antibodies; only the target purified
T1 sequence: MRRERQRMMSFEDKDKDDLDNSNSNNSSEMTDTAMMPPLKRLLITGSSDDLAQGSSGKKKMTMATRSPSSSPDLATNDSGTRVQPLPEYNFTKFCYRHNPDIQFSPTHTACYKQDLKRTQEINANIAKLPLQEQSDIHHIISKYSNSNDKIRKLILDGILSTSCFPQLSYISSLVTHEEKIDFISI

[2] = biological target: T2, (MBP)-Met30(1-186) (S. cerevisiae) (UniProt P39014); assay: as above
T2 sequence: T1 sequence with E178M, E179I

binding [1]: binds
binding [2]: binds
Substance: Cdc53(267-851)/GST-Rbx1 complex expressed in bacteria (S. cerevisiae)
